Assay results as given in the supplement of paper PMC10849652.
The list shows a part of the results. Residues, ends and D or L forms follow the SMILES beside them. *: point of attachment. Cbz = O=C(OCc1ccccc1)*

Amino acid sequences for entries named in this document (tags omitted). A change or cut given only in a name is not applied to a line headed by its entry.
UniProt P31146: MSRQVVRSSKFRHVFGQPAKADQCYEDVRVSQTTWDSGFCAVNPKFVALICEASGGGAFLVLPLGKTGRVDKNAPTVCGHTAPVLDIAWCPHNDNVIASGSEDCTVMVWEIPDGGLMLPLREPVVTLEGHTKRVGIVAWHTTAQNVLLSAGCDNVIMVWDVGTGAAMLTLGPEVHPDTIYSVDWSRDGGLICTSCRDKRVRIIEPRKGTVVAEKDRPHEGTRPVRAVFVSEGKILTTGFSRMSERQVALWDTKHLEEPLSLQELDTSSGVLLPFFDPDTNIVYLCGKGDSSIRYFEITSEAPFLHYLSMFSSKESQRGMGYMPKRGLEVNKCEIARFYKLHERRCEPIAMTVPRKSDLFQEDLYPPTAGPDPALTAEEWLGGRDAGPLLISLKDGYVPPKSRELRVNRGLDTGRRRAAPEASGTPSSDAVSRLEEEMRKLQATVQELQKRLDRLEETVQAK
UniProt Q9GZQ3, whole entry, looked up: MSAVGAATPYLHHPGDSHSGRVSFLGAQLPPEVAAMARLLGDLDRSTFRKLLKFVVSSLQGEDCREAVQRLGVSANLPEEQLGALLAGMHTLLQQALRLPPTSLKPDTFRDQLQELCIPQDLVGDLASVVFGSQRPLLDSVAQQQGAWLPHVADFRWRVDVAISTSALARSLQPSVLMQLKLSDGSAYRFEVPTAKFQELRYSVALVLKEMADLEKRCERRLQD
UniProt Q9H9Q2: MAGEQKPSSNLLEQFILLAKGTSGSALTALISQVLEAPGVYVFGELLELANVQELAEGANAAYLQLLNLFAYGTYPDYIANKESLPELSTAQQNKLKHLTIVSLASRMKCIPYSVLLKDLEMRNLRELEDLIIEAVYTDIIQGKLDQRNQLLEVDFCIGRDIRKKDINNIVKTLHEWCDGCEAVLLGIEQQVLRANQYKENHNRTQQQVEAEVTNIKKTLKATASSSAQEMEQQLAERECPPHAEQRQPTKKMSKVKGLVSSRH
UniProt Q9Y678: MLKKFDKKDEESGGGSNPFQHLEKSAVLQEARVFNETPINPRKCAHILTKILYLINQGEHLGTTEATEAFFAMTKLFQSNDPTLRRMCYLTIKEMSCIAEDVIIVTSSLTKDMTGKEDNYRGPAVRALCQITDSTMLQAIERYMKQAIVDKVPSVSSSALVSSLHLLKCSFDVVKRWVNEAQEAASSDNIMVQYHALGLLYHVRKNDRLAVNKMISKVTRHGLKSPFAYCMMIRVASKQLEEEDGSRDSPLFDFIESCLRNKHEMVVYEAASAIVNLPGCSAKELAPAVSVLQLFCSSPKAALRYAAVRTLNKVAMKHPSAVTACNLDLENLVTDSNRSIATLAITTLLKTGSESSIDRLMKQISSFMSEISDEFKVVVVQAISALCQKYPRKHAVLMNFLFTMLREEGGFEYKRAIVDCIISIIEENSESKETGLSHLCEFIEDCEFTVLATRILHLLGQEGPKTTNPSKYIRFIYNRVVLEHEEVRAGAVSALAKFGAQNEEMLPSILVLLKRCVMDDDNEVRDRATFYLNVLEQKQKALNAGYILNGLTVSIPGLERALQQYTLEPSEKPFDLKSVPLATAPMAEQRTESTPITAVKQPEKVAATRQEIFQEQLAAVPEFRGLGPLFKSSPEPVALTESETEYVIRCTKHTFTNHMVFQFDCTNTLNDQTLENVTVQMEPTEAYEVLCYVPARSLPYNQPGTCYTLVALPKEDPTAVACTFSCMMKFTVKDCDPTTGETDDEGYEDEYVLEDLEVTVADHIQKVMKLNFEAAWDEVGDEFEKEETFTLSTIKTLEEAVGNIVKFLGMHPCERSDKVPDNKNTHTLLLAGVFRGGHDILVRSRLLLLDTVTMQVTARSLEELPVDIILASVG
UniProt Q9H0A8, whole entry, looked up: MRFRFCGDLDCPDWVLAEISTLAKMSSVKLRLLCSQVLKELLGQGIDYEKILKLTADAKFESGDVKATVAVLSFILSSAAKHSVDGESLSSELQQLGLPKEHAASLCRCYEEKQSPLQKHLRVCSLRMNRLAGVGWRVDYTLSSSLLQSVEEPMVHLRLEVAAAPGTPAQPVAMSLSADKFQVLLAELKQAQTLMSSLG
UniProt Q6UXH1: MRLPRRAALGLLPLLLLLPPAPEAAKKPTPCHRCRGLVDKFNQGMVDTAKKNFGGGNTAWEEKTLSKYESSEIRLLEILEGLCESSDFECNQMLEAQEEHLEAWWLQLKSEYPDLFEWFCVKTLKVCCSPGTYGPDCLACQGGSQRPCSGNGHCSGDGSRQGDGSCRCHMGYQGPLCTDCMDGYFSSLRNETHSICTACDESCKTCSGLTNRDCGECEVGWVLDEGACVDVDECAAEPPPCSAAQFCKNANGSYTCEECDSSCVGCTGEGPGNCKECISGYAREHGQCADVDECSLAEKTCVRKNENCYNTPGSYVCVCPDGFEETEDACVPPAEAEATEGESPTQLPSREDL
UniProt Q99829: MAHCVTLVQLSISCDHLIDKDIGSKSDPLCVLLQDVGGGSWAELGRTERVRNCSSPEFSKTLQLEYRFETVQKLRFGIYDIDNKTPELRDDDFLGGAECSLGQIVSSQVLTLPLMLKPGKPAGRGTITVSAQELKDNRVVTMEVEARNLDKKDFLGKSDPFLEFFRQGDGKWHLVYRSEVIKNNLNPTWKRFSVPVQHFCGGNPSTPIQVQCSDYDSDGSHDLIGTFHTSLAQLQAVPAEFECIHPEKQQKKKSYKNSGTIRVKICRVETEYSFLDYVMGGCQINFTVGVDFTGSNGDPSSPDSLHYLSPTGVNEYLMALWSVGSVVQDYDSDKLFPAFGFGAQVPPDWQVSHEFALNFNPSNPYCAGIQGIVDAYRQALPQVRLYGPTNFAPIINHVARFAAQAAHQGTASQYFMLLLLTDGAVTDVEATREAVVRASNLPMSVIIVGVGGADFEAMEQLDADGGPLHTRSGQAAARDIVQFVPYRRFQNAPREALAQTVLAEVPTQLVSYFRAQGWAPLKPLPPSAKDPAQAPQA
UniProt Q5HYK3: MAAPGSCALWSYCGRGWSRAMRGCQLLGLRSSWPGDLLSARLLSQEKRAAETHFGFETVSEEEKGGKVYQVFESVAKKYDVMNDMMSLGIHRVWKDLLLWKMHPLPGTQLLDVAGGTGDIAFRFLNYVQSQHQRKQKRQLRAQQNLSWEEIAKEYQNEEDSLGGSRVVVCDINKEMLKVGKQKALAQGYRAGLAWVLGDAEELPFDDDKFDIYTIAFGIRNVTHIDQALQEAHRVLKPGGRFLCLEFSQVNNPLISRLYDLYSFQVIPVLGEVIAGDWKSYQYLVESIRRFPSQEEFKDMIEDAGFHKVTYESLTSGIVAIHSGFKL
UniProt Q5TZA2: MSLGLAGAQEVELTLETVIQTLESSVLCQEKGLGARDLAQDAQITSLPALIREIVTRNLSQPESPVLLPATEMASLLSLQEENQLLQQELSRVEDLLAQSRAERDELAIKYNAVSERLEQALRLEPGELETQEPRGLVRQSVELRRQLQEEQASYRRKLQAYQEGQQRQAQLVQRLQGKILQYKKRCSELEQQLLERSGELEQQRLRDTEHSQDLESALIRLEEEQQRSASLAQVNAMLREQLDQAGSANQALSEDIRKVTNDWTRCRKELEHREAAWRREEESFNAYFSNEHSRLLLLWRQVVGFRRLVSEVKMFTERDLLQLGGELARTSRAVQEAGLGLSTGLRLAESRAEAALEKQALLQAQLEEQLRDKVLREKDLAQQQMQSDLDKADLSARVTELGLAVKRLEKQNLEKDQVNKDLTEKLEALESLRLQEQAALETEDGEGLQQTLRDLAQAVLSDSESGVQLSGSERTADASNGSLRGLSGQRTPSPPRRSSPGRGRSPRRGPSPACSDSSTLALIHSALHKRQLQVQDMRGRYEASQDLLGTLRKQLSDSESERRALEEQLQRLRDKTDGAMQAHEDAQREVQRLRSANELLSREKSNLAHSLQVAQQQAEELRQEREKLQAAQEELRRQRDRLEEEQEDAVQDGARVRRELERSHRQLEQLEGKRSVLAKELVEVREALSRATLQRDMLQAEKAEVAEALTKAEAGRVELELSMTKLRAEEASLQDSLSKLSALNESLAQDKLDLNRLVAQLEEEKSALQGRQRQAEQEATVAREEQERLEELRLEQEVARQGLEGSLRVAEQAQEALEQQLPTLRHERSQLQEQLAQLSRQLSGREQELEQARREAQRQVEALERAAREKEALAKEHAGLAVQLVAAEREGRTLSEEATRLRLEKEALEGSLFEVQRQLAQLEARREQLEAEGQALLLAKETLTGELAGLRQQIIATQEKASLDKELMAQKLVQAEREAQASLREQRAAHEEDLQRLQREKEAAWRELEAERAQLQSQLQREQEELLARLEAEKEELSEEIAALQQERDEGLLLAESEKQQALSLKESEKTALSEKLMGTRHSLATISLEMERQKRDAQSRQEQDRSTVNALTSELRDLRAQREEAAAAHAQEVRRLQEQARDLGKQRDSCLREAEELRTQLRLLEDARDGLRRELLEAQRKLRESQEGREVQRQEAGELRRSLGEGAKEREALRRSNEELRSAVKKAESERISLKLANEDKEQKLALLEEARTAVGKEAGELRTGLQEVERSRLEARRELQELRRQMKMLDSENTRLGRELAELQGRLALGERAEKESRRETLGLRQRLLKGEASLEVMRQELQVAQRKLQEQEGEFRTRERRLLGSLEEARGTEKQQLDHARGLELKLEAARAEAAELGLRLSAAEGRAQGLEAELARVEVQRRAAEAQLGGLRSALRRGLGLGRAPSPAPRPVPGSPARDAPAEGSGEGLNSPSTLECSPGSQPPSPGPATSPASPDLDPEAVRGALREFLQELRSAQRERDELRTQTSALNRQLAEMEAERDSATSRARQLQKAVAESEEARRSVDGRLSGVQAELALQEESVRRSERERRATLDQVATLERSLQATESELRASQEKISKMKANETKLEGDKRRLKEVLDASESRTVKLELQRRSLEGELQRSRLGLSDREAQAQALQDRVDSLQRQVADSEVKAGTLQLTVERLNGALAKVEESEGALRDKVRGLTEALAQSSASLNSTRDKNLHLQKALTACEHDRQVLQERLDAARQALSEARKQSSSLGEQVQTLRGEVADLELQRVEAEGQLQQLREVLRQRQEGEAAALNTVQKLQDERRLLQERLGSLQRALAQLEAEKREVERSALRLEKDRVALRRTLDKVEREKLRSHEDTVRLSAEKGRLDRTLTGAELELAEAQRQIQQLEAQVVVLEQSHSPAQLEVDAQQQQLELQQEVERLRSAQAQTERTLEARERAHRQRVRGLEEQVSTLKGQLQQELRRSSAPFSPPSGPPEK
UniProt Q08257: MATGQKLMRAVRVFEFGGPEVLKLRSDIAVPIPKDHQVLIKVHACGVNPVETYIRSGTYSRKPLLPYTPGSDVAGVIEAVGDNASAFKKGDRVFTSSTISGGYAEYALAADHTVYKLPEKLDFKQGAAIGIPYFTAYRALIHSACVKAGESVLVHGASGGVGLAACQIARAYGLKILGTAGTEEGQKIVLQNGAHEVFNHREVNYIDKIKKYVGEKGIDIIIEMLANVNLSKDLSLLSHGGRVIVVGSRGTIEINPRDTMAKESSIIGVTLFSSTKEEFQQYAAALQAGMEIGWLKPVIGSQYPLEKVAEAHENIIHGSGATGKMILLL
UniProt Q9BR76, whole entry, looked up: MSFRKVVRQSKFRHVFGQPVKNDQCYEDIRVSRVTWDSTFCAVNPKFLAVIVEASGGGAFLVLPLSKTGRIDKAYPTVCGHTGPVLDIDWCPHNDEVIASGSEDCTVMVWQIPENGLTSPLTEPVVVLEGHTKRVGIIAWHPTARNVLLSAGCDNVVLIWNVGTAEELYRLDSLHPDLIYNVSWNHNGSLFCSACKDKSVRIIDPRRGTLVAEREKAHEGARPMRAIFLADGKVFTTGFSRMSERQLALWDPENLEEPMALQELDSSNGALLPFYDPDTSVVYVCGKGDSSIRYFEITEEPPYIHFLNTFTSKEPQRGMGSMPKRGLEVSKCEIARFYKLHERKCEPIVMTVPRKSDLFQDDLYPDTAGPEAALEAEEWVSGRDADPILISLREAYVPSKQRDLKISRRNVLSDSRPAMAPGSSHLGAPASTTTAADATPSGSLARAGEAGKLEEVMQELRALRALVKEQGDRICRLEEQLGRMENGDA
UniProt Q9NX08, whole entry, looked up: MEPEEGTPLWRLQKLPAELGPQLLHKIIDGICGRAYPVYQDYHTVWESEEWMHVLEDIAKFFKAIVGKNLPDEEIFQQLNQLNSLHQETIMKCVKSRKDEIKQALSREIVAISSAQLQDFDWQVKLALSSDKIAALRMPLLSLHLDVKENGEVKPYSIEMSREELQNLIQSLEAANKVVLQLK
UniProt Q9Y6N1: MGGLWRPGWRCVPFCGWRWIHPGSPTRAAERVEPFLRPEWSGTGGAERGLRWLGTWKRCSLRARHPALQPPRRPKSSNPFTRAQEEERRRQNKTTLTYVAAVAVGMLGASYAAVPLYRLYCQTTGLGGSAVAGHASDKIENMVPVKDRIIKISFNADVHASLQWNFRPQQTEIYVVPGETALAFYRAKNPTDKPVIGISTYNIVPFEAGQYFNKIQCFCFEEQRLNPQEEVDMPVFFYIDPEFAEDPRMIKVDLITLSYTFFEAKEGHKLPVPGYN

Columns and labels:
Assay in all cases: log2 fold change, soluble protein after heating vs DMSO (PISA); higher = thermal stabilisation; K562 cells, 10 uM, 30 min; active = over 0.2 and 3.5 SD of the protein, either way, in both replicates (recomputed)
[1] = compound: C1COCCN1CCN2C3=CC=CC=C3N=C2NC(=O)C4=CC(=CC=C4)[N+](=O)[O-] [IRAK-1-4 Inhibitor I]
Summary of the method: (§1)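 K562 cells (2×10^6 cells/mL) were treated with 10 μM compound for 30 min, and aliquots were heated for 3 min over 48°C-58°C. Pooled aliquots were extracted in PBS with 0.5% NP-40 at 4°C, and the supernatant after 21,000xg for 90 min was measured by TMTpro 16plex LC-MS/MS with channel sums equalised. Reported thermal stability, relative to control samples and from duplicates, is a log2 fold change.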

[2] = compound: C=CC(=O)N1CCC[C@@H](n2nc(-c3ccc(Oc4ccccc4)cc3)c3c(N)ncnc32)C1 [ibrutinib]
Summary of the method: as §1

[3] = compound: CC(=O)c1cnc2ccc(-c3cc(Cl)c(O)c(Cl)c3)nc2c1N[C@H]1CC[C@H](CN(C)C)CC1
Summary of the method: as §1

[4] = compound: CC(C)(C)Cn1c(N)nc2ccc(-c3[nH]c(C(C)(C)C)nc3-c3ccc(F)cc3)nc21 [ralimetinib]
Summary of the method: as §1

[5] = compound: CC(C)(O)CC(=O)NCCn1ccc2ncnc(Nc3ccc(Oc4cccc(C(F)(F)F)c4)c(Cl)c3)c21
Summary of the method: as §1

[6] = compound: CC(C)C1=C2N=C(C=C(N2N=C1)NCC3=CC=CC=C3)NCCCCCCN
Summary of the method: as §1

[7] = compound: CC(C)C[C@@H](C=O)NC(=O)[C@H](CC(C)C)NC(=O)[C@H](CC(C)C)NC(=O)OCc1ccccc1
Summary of the method: as §1

[8] = compound: CC(C)N(C[C@H]1O[C@@H](n2cnc3c(N)ncnc32)[C@H](O)[C@@H]1O)[C@H]1C[C@@H](CCc2nc3cc(C(C)(C)C)ccc3[nH]2)C1 [pinometostat]
Summary of the method: as §1

[9] = compound: CC1=C(C(CC(=O)N1)C2=CC=C(C=C2)C(F)(F)F)C(=O)NC3=C(C=C4C(=C3)C=NN4)F
Summary of the method: as §1

[10] = compound: CC1=C(C2=C(C=C1)C(=O)C3=CC=CC=C3N2CCCN)C
Summary of the method: as §1

Measured: log2 fold change

COPZ1 isoform 4 (UniProt P61923)
inactive: [1] 0.049 | [2] -0.016 | [3] -0.06 | [4] -0.029 | [5] -0.002 | [6] -0.002 | [7] -0.025 | [8] -0.001 | [9] 0.038 | [10] 0.156

CORO1A (UniProt P31146)
inactive: [1] -0.027 | [2] 0.001 | [3] -0.02 | [4] 0 | [5] -0.01 | [6] -0.099 | [7] 0.114 | [8] 0 | [9] 0.029 | [10] -0.022

COMMD5 (UniProt Q9GZQ3)
inactive: [1] -0.019 | [2] -0.088 | [3] 0.009 | [4] -0.02 | [5] -0.097 | [6] -0.066 | [7] -0.013 | [8] -0.118 | [9] 0.041 | [10] 0.1

COPS7B (UniProt Q9H9Q2)
inactive: [1] 0.006 | [2] -0.002 | [3] 0.048 | [4] -0.018 | [5] -0.063 | [6] 0.033 | [7] -0.002 | [8] -0.073 | [9] 0.004 | [10] -0.1

COPG1 (UniProt Q9Y678)
inactive: [1] 0 | [2] -0.017 | [3] 0.022 | [4] 0.003 | [5] -0.035 | [6] 0.072 | [7] -0.01 | [8] -0.014 | [9] 0.008 | [10] 0.019

COX19 (UniProt Q49B96)
inactive: [1] 0.015 | [2] -0.043 | [3] -0.017 | [4] -0.067 | [5] 0.008 | [6] -0.025 | [7] -0.006 | [8] -0.016 | [9] 0.009 | [10] 0.047

COMMD4 (UniProt Q9H0A8)
inactive: [1] 0.005 | [2] -0.01 | [3] -0.049 | [4] 0.018 | [5] -0.117 | [6] 0.018 | [7] -0.021 | [8] -0.083 | [9] 0.03 | [10] 0.118

Two records drawn at random from the list so far, as already listed:
COX19 (UniProt Q49B96)
inactive: [1] 0.015 | [2] -0.043 | [3] -0.017 | [4] -0.067 | [5] 0.008 | [6] -0.025 | [7] -0.006 | [8] -0.016 | [9] 0.009 | [10] 0.047

COPS7B (UniProt Q9H9Q2)
inactive: [1] 0.006 | [2] -0.002 | [3] 0.048 | [4] -0.018 | [5] -0.063 | [6] 0.033 | [7] -0.002 | [8] -0.073 | [9] 0.004 | [10] -0.1

Additional entries follow.

CRELD2 isoform 5 (UniProt Q6UXH1)
inactive: [1] 0.029 | [2] 0.026 | [3] 0.024 | [4] -0.043 | [5] 0.097 | [6] 0.099 | [7] -0.007 | [8] -0.009 | [9] 0.087 | [10] -0.054

CPNE1 (UniProt Q99829)
inactive: [1] 0.003 | [2] -0.025 | [3] 0.015 | [4] -0.073 | [5] -0.028 | [6] 0.025 | [7] -0.005 | [8] -0.023 | [9] -0.033 | [10] -0.031

CPS1 isoform 3 (UniProt P31327)
inactive: [1] -0.045 | [2] 0.095 | [3] 0.021 | [4] 0.099 | [5] 0.094 | [6] 0.069 | [7] -0.017 | [8] -0.076 | [9] -0.207 | [10] -0.15

COQ5 (UniProt Q5HYK3)
inactive: [1] 0.031 | [2] 0.065 | [3] -0.075 | [4] -0.008 | [5] -0.055 | [6] -0.075 | [7] 0.004 | [8] -0.022 | [9] -0.012 | [10] -0.046

CSNK1A1L (UniProt Q8N752)
inactive: [1] 0.003 | [2] -0.025 | [3] -0.042 | [4] 0.016 | [5] 0.058 | [6] -0.188 | [7] 0.103 | [8] 0.101 | [9] 0.068 | [10] 0.048

COPS7A (UniProt Q9UBW8)
inactive: [1] 0.055 | [2] 0.018 | [3] -0.023 | [4] -0.032 | [5] -0.06 | [6] 0.004 | [7] -0.002 | [8] -0.003 | [9] 0.002 | [10] -0.023

COMMD10 (UniProt Q9Y6G5)
inactive: [1] 0.031 | [2] 0.07 | [3] 0.003 | [4] 0.008 | [5] 0.082 | [6] -0.039 | [7] 0.009 | [8] -0.02 | [9] -0.03 | [10] 0.054

CROCC (UniProt Q5TZA2)
inactive: [1] 0.008 | [2] -0.021 | [3] -0.089 | [4] -0.037 | [5] 0.048 | [6] -0.053 | [7] 0.035 | [8] -0.107 | [9] -0.032 | [10] 0.005

CRTAP (UniProt O75718)
inactive: [1] -0.038 | [2] -0.061 | [3] 0.031 | [4] 0.072 | [5] 0.127 | [6] -0.078 | [7] 0.068 | [8] 0.053 | [9] 0.002 | [10] 0.048

CRYZ (UniProt Q08257)
inactive: [1] 0.028 | [2] 0.009 | [3] -0.001 | [4] -0.056 | [5] -0.036 | [6] 0.047 | [7] -0.01 | [8] -0.05 | [9] -0.012 | [10] 0.043

COX18 (UniProt Q8N8Q8)
inactive: [1] 0.047 | [2] 0.05 | [3] -0.096 | [4] -0.016 | [5] -0.006 | [6] -0.073 | [7] 0.061 | [8] -0.028 | [9] -0.008 | [10] 0.025

CPOX (UniProt P36551)
inactive: [1] 0.01 | [2] -0.001 | [3] 0.083 | [4] -0.012 | [5] 0 | [6] 0.024 | [7] -0.044 | [8] -0.105 | [9] -0.007 | [10] 0.011

CORO1B (UniProt Q9BR76)
inactive: [1] 0.014 | [2] -0.042 | [3] -0.019 | [4] 0.004 | [5] -0.007 | [6] -0.013 | [7] 0.038 | [8] -0.042 | [9] -0.015 | [10] 0.003

COLGALT1 (UniProt Q8NBJ5)
inactive: [1] -0.068 | [2] -0.081 | [3] 0.039 | [4] 0.069 | [5] -0.024 | [6] -0.021 | [7] 0.023 | [8] 0.093 | [9] 0.028 | [10] 0.023

COMMD8 (UniProt Q9NX08)
inactive: [1] -0.033 | [2] 0.063 | [3] -0.063 | [4] 0.103 | [5] -0.149 | [6] -0.16 | [7] 0.023 | [8] -0.054 | [9] 0.029 | [10] 0.293

COX11 (UniProt Q9Y6N1)
inactive: [1] 0.013 | [2] 0.021 | [3] -0.051 | [4] -0.184 | [5] -0.032 | [6] 0.067 | [7] 0.044 | [8] -0.035 | [9] -0.053 | [10] 0.06

COPB1 (UniProt P53618)
inactive: [1] -0.018 | [2] -0.027 | [3] 0.005 | [4] -0.012 | [5] -0.028 | [6] 0.067 | [7] -0.014 | [8] -0.009 | [9] -0.011 | [10] 0

COMMD9 (UniProt Q9P000)
inactive: [1] -0.137 | [2] 0.009 | [3] -0.063 | [4] -0.071 | [5] -0.016 | [6] -0.057 | [7] -0.004 | [8] 0.003 | [9] 0.052 | [10] 0.254

CPVL (UniProt Q9H3G5)
inactive: [1] 0.055 | [2] -0.06 | [3] 0.058 | [4] -0.05 | [5] -0.078 | [6] -0.043 | [7] 0.078 | [8] -0.029 | [9] 0.041 | [10] 0.075

CRELD1 isoform 2 (UniProt Q96HD1)
inactive: [1] -0.174 | [2] -0.205 | [3] -0.066 | [4] -0.275 | [5] 0.074 | [6] 0.083 | [7] 0.299 | [8] 0.058 | [9] -0.103 | [10] 0.015

COPB2 (UniProt P35606)
inactive: [1] -0.001 | [2] -0.005 | [3] 0.008 | [4] -0.006 | [5] -0.015 | [6] 0.05 | [7] -0.013 | [8] -0.003 | [9] -0.002 | [10] 0.023

COPRS (UniProt Q9NQ92)
inactive: [1] 0.049 | [2] 0.032 | [3] 0.02 | [4] 0.018 | [5] 0.025 | [6] 0.042 | [7] -0.037 | [8] -0.085 | [9] 0.035 | [10] 0.092

COPA isoform 2 (UniProt P53621)
inactive: [1] -0.005 | [2] -0.02 | [3] 0.01 | [4] -0.014 | [5] -0.009 | [6] 0.076 | [7] -0.029 | [8] 0.011 | [9] -0.003 | [10] 0.007
